Assay results reported in PubChem BioAssay AID1688 (National Center for Advancing Translational Sciences (NCATS), 2009).
Screen size: about 220,000 compounds; about 2,400 (1.1%) were called active. The shares of active, inactive and inconclusive entries below differ from those in the screen. Calls come from the whole dose curve; as a rule, active = well fitted inhibition curve with a large enough effect; inconclusive = small, poorly fitted or top-dose-only effect, or effect the other way; inactive = no such curve, though single readings can be large or run the other way. Potencies beside an inconclusive call are fits to weak or partial responses and may not hold up.

Assay: qHTS Multiplex Assay to Identify Dual Action Probes in a Cell Model of Huntington: Aggregate Formation (GFP); note: nearly all actives have a fitted effect of over 60% in size
Conditions: PC12 HttQ103-GFP aggregates, Acumen cytometry, 40 h; activity change, negative = inhibition: at 46.1 µM (top of the series) unless noted
Procedure, shortened: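 PC12/HTTQ103-GFP, ecdysone-inducible; teb 100 nM; cpd qHTS titration; GFP aggregates read on laser cytometer, Ex 488/Em 500-530 nm.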
% is set by controls: 0 for no effect and ±100 for the full control effect; potency is the fitted concentration of half-maximal effect.

Compound | Potency | activity change, negative = inhibition
Cc1oc(CC(C)C)cc1C(=O)NCCCC(=O)O | inconclusive: 4.47 µM [activator, single point] | –
COc1ccc2nc(N3C(=O)/C(=C/c4ccc(Cl)cc4)NC3=S)sc2c1 | inconclusive: 22.4 µM [inhibitor, single point] | –
COc1cccc(-c2cc3nc4c(c(N5CCC6(CC5)OCCO6)n3n2)CCCC4)c1 | inconclusive: 35.5 µM [inhibitor, single point] | –
COc1ccc(C/C(N)=N/n2cnnc2)cc1 | inconclusive: 0.562 µM [activator, full curve, poor fit] | –
Cc1ccc(N(C)C(=O)N2CCN(S(=O)(=O)c3ccc4ccccc4c3)CC2)cc1 | active: 11.2 µM | –
CCC(c1nc2ccccc2c(=O)n1CCN1CCOCC1)N1C(=O)c2ccccc2C1=O (centres undefined) | inconclusive: 0.562 µM [inhibitor, full curve, poor fit] | –
Fc1cccc(NC(=S)Nc2cccnc2)c1 | – | inactive: -2.54%
CSc1nc(N)c(C#N)c(-c2ccc(Cl)cc2)c1C#N | inconclusive: 14.1 µM [inhibitor, single point] | –
O=C(CSc1nnc(-c2ccco2)o1)c1ccc(O)cc1O | – | inactive: 20.2%
CN(C)CCNC(C(=O)Nc1cc(Cl)cc(Cl)c1)c1ccccc1 (centres undefined) | – | inactive: 7.06%
O=C(Nc1ccc(N2C(=O)C3C4C=CC(C4)C3C2=O)cc1)Nc1nncs1 (centres undefined) | inconclusive: 1.26 µM [activator, single point] | –
O=C(NCCNC(=O)c1cc(OCC(F)(F)F)ccc1OCC(F)(F)F)Nc1cccc(C(F)(F)F)c1 | inconclusive: 35.5 µM [inhibitor, single point] | –
CCC(CO)n1c(SCc2cc([N+](=O)[O-])cc3c2OCOC3)nc2ccccc2c1=O (centres undefined) | inconclusive: 14.1 µM [activator, single point] | –
Cc1nnc(N/N=C/c2ccc([N+](=O)[O-])cc2)n1N | inconclusive: 35.5 µM [inhibitor, single point] | –
Cc1ccc(-n2ncc3c(NCc4ccco4)ncnc32)c(C)c1 | – | inactive: -16.9%
CCC(C)c1ccc(NC(=S)NC2CCN(Cc3ccccc3)CC2)cc1 (centres undefined) | inconclusive: 35.5 µM [inhibitor, single point] | –
Cc1cc(C(=O)CSc2nnc(Nc3ccccc3)s2)c(C)n1CC1CCCO1 (centres undefined) | inconclusive: 12.6 µM [inhibitor, partial curve, poor fit] | –
c1ccc2c(c1)[nH]c1c(N3CCC4(CC3)OCCO4)ncnc12 | active: 12.6 µM | –
CC/C(C)=C1\SC(N2CCN(c3cccc(C(F)(F)F)c3)CC2)=NC1=O | inconclusive: 22.4 µM [inhibitor, partial curve] | –
CCCCNC(=S)N/N=C/c1ccc(OCC(=O)Nc2c(C)cc(C)cc2C)c(OC)c1 | – | inactive: -6.35%
CC(C)OC(=O)Cn1nnc2c(cnn2-c2ccccc2)c1=O | – | inactive: -1.02%
Cc1cc(/C=N/n2cnnc2)c(C)n1-c1ccc(OCc2ccc(F)cc2)cc1 | active: 7.08 µM | –
CCOc1ccc(N2C(=O)/C(=C\c3ccc(O)c(OC)c3)S(=O)(=O)C2c2cccc([N+](=O)[O-])c2)cc1 (centres undefined) | – | inactive: 3.26%

Reprinted at random: two records from the list
Compound | Potency | activity change, negative = inhibition
CCC(C)c1ccc(NC(=S)NC2CCN(Cc3ccccc3)CC2)cc1 (centres undefined) | inconclusive: 35.5 µM [inhibitor, single point] | –
CCCCNC(=S)N/N=C/c1ccc(OCC(=O)Nc2c(C)cc(C)cc2C)c(OC)c1 | – | inactive: -6.35%

Later entries

Compound | Potency | activity change, negative = inhibition
O=C(O)c1cccc(-n2cccc2/C=C\[N+](=O)[O-])c1 | – | inactive: 6.08% [at 9.22 µM]
C=C(C)Cn1c(N2CCN(c3ccc(OC)cc3)CC2)nc2c1c(=O)n(C)c(=O)n2C | inconclusive: 11.2 µM [inhibitor, partial curve] | –
N#Cc1ccccc1-n1c(N)c(C(=O)N2CCCC2)sc1=S | inconclusive: 25.1 µM [inhibitor, single point] | –
CCc1ccc(-c2nnn(Cc3nc4ccccc4s3)n2)cc1 | inconclusive: 25.1 µM [inhibitor, single point] | –
CC(C)Nc1nc(Oc2ccc(Cl)cc2Cl)cc(C(F)(F)F)n1 | inconclusive: 35.5 µM [inhibitor, single point] | –
O=c1c(-c2ccccc2)c1-c1ccccc1 | active: 14.1 µM | –
Cc1nc2ccccc2n1CC(O)COCC1CC=CCC1 (centres undefined) | inconclusive: 7.94 µM [inhibitor, partial curve] | –
COc1cc(C2CC(=O)c3cnc(N4CCN(Cc5ccccc5)CC4)nc3C2)cc(OC)c1OC (centres undefined) | inconclusive: 35.5 µM [inhibitor, single point] | –
CCC(=O)OCC(=O)c1c(N)n(Cc2ccccc2)c(=O)n(C)c1=O | inconclusive: 20 µM [inhibitor, partial curve] | –
CN(C)CC(=O)N1c2ccccc2CCc2ccc(NC(=O)c3ccc(N)cc3)cc21 | inconclusive: 0.891 µM [inhibitor, single point] | –
C=CCNC(=S)NNC(=O)C(CCC(C)C)CC(C)(C)O (centres undefined) | inconclusive: 10 µM [inhibitor, partial curve] | –
CCOC(=O)C1(Cc2cccc(OC)c2)CCCN(C(=O)c2cc(C)[nH]n2)C1 (centres undefined) | inconclusive: 3.16 µM [inhibitor, single point] | –
NNC(=O)C=C1CCN(c2ncc(C(F)(F)F)cc2Cl)CC1 | – | inactive: 13.2%
CC1(C)CC(=O)c2cc(NC(=O)c3ccccc3)c(=O)oc2C1 | inconclusive: 35.5 µM [activator, single point] | –
Cc1cccc(N2CCN(C(=O)Cc3ccc(-n4c(=O)[nH]c5ccsc5c4=O)cc3)CC2C)c1 (centres undefined) | inconclusive: 1.26 µM [activator, single point] | –
CCN(CC)c1ccc(S(=O)(=O)N2CCOCC2)cc1NC(=O)CNCc1ccccc1 | inconclusive: 5.62 µM [activator, single point] | –
CC(C)=C1C2CCC1C1C(=O)N(NC(=O)COc3ccc(C(C)(C)C)cc3)C(=O)C21 (centres undefined) | inconclusive: 11.2 µM [inhibitor, partial curve] | –
COc1cc([C@@H]2[C@H]3CNCC=C3C(C#N)=C(N)C2(C#N)C#N)ccc1OC(C)C | inconclusive: 11.2 µM [activator, partial curve] | –
COc1cc2c(cc1NC(=O)CCCCCN1C(=O)CCC1=O)oc1ccccc12 | inconclusive: 12.6 µM [inhibitor, single point] | –
CC1(C)CC(=O)C=C(Nc2ccc(OCC(F)(F)C(F)F)cc2)C1 | inconclusive: 0.708 µM [activator, single point] | –
CCN(CC)C(=O)C1CCCN(c2ccc([N+](=O)[O-])cc2/C=N/NC(=O)c2ccc([N+](=O)[O-])cc2)C1 (centres undefined) | – | inactive: 14.1%
Cc1noc(C)c1C(=O)OCC(=O)c1cc(C)n(Cc2ccccc2Cl)c1C | inconclusive: 25.1 µM [inhibitor, single point] | –
O=C(Nc1nc2ccc(F)cc2s1)c1cccc(S(=O)(=O)N2CCc3ccccc32)c1 | inconclusive: 0.0316 µM [inhibitor, full curve, poor fit] | –

Two consecutive records already listed, for reference:
Compound | Potency | activity change, negative = inhibition
NNC(=O)C=C1CCN(c2ncc(C(F)(F)F)cc2Cl)CC1 | – | inactive: 13.2%
CC1(C)CC(=O)c2cc(NC(=O)c3ccccc3)c(=O)oc2C1 | inconclusive: 35.5 µM [activator, single point] | –

(more compounds)

Compound | Potency | activity change, negative = inhibition
CC(=O)c1cc(F)c(N2CCN(CCC#N)CC2)cc1C | – | inactive: -8.71%
CCN(CC)S(=O)(=O)c1csc(C(=O)Nc2ccccn2)c1 | inconclusive: 4.47 µM [inhibitor, single point] | –
Cc1nc2ccccc2c(=O)n1NC(=O)c1ccco1 | – | inactive: -2.84%
O=C(CCc1nc2ccccc2s1)NC1CCOC1=O (centres undefined) | – | inactive: 25.8% [at 9.22 µM]
CC(=O)c1cccc(N/C=C\C(=O)c2ccc(C)cc2)c1 | – | inactive: 21.8%
Cc1cc(N2CCN(C(=O)c3ccco3)CC2)n2nc(-c3cccc(F)c3)cc2n1 | inconclusive: 35.5 µM [inhibitor, single point] | –
COc1ccccc1NS(=O)(=O)c1cc(NC(=O)c2ccncc2)ccc1N1CCCC1 | inconclusive: 8.91 µM [activator, partial curve] | –
CC(Sc1ccsc1[N+](=O)[O-])C(=O)N1CCN(c2ccccn2)CC1 (centres undefined) | inconclusive: 2.82 µM [activator, full curve] | –
CCOC(=O)N1CCN(CCC(=O)c2ccc(OC)cc2)CC1 | inconclusive: 15.8 µM [inhibitor, single point] | –
CCc1noc(C)c1C(=O)Nc1nc(-c2ccc(Cl)cc2Cl)cs1 | inconclusive: 35.5 µM [inhibitor, single point] | –
COc1cc(C)nc(N2CCCC(C(=O)Nc3cccc(Cl)c3C)C2)n1 (centres undefined) | inconclusive: 0.562 µM [activator, full curve] | –
CCOC(=O)C1(CC2CCCCO2)CCN(C(=O)Nc2ccc(SC)cc2)CC1 (centres undefined) | – | inactive: -14%
Cc1nn(Cc2ccc(F)cc2)c(C)c1NC(=O)CCCn1nc([N+](=O)[O-])cc1C | – | inactive: 6.56%
Cc1ccc(NC(=O)c2c(C(F)(F)F)nn(C)c2SCc2ccc(Cl)cc2)cc1C | inconclusive: 12.6 µM [inhibitor, partial curve] | –
CC1CCC2C(=O)N(c3ccc(C(=O)Oc4cccc5cccnc45)cc3)C(=O)C2C1 (centres undefined) | inconclusive: 8.91 µM [inhibitor, partial curve] | –
O=C(CSc1ccc(Cl)cc1)N1CCN(c2ccc(Cl)cc2[N+](=O)[O-])CC1 | active: 11.2 µM | –
COc1cccc(N2CCN(C3CC(=O)N(c4ccc(C)c(Cl)c4)C3=O)CC2)c1 (centres undefined) | – | inactive: 3.46%
COC(=O)/C=C/C(=O)N1CCN(c2ccccc2)CC1 | inconclusive: 5.01 µM [activator, full curve, poor fit] | –
c1coc(CNc2ncnc3ccccc23)c1 | active: 7.94 µM | –
O=C(C1CCCN(S(=O)(=O)c2cccc3nonc23)C1)N1CCC(Cc2ccccc2)CC1 (centres undefined) | active: 35.5 µM | –
COc1ccc(Nc2nc3ccc(OC)cc3s2)cc1 | – | inactive: 1.34%
CCc1ccc(/C=C/c2c[nH]c3ccccc23)[n+](CC)c1 | inconclusive: 3.55 µM [inhibitor, single point] | –
O=C(/C=C/c1ccc2c(c1)OCCCO2)c1ccc2ccccc2c1O | inconclusive: 0.562 µM [inhibitor, partial curve, poor fit] | –
